System: anti-levetiracetam antibody prepared with immunogen 18a
Assay: Antibody avidity by ELISA binding inhibition study with levetiracetam
Conditions: Sheep No. 5479 antibody, 405 nm
Procedure: The avidity of the anti-levetiracetam antibody prepared with immunogen 18a for various levetiracetam derivatives were determined by a binding inhibition study. Samples were prepared in 1 mL of PBS at pH 7.4 with 0.1% BSA. A composition having 30% Bmax titer or 50% Bmax titer was used to divide the titer value as obtained in Example 38 into approximately half the titer value. Using 30% Bmax, an antibody titer of 1:10000 was diluted to […] during the sample preparation stage. About 50 μL of levetiracetam at different concentrations or calibrator values, (0, 5, 10, 20, 40, 80 μg/ml) were applied to a plate as prepared in accordance with Example 38. About 50 μL of the diluted antibody was dispensed into the plate, and the compositions in the plate were mixed for 1 min on a horizontal plate shaker. No levetiracetam or anti-levetiracetam antibody was added to the first row of the plate, which served as a negative control. A second row with anti-levetiracetam antibody but without levetiracetam was used as the positive control. The plate was incubated for 60 min and washed three times with 250 μL of PBS at pH 7.4 with 0.05% Tween 20. About 125 μL of a diluted derivative such as 18b or 19 in PBS at pH 7.4 was added to each well of the plate. The plate was incubated for 60 min at 37° C. and washed as described above. Approximately 125 μL of ABTS substrate was added to each well of the plate and incubated for 20 min.

With `CC[C@@H](C(N)=O)N1CCCC1=O` [Levetiracetam, (−)-(S)-α-ethyl-2-oxo-1-pyrrolidine acetamide] the Abs. (Levetiracetam 5 μg/mL, Antigen 18b) was 0.80, the Abs. (Levetiracetam 5 μg/mL, Antigen 19) was 0.84 and the Abs. (Levetiracetam 10 μg/mL, Antigen 18b) was 0.81. For the same compound, the Abs. (Levetiracetam 10 μg/mL, Antigen 19) was 0.78, the Abs. (Levetiracetam 20 μg/mL, Antigen 18b) was 0.75 and the Abs. (Levetiracetam 20 μg/mL, Antigen 19) was 0.74. It also gave an Abs. (Levetiracetam 40 μg/mL, Antigen 18b) of 0.73, an Abs. (Levetiracetam 40 μg/mL, Antigen 19) of 0.67 and an Abs. (Levetiracetam 80 μg/mL, Antigen 18b) of 0.72. The Abs. (Levetiracetam 80 μg/mL, Antigen 19) was 0.66.

Source: US8846411B2, “Derivatives, reagents, and immunoassay for detecting levetiracetam” (Microgenics Corporation, priority 2009, dated 2014)
